Publication doi:10.1101/2025.11.01.685922
Results are given in words; binding and its absence hold for the method and conditions named. Binding seen in cells or lysates may run through a third protein. Some entries that bind do so weakly or less than the wild type. For some assays here: Where a sequence is shown, tags or fusion partners need not be part of it.

Sequences of proteins named here, by UniProt entry; tags and fusion partners are left off. A change or cut given only in a name is not applied to a line headed by its entry. Residues count along the entry.
UniProt P61586: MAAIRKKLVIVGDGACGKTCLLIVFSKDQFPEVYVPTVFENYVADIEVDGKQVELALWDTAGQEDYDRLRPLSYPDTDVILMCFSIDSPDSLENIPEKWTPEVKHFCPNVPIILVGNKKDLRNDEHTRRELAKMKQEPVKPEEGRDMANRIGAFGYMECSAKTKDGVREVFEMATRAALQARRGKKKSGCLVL
UniProt Q9DBC7: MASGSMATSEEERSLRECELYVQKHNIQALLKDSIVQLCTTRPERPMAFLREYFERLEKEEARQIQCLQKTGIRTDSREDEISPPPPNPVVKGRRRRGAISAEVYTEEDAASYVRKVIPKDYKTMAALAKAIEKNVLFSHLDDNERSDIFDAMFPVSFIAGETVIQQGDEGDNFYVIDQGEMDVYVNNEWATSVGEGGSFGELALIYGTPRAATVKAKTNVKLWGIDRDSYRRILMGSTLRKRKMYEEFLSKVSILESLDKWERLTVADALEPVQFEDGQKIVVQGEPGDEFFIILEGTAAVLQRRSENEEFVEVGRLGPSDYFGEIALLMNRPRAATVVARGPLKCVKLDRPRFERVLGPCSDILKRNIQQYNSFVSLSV
UniProt P10644, residues 1-93: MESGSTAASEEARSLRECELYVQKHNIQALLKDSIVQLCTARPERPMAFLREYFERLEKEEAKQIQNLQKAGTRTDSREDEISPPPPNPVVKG

T1: FAM134B-V5, wild-type full-length (FL), stably expressed in PDAC cells (mouse) (UniProt Q8VE91)
T1 sequence: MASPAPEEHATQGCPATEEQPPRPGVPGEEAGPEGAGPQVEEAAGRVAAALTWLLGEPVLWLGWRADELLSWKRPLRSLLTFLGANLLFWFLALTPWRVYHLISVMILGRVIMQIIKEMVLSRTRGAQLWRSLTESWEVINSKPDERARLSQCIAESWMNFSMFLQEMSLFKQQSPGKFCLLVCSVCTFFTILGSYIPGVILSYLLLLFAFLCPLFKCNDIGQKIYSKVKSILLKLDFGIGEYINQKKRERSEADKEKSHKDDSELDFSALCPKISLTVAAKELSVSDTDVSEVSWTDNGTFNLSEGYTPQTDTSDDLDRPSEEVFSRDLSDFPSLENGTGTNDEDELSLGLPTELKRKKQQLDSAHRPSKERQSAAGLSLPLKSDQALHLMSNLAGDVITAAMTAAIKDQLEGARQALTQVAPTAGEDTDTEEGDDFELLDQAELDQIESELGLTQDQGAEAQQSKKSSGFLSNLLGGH

T2: FAM134B, endogenous in PDAC cells (mouse (endogenous in PDAC KPC cells)) (UniProt Q8VE91)
T2 sequence: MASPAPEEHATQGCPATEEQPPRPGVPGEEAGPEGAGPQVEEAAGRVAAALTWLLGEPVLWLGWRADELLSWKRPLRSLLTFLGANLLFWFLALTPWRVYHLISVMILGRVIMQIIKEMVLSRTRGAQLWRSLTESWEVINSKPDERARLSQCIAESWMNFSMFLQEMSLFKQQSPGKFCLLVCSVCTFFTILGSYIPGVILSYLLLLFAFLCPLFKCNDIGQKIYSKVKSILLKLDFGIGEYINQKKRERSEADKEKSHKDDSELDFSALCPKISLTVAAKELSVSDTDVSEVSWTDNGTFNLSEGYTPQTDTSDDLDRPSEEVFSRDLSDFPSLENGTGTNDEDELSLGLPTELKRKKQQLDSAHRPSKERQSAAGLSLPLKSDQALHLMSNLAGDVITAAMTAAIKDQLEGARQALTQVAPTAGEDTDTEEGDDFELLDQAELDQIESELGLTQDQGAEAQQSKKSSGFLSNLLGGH

T3: FAM134C precipitated from PDAC cells (Figs. S3B, S5D-E) (UniProt Q9CQV4)
T3 sequence: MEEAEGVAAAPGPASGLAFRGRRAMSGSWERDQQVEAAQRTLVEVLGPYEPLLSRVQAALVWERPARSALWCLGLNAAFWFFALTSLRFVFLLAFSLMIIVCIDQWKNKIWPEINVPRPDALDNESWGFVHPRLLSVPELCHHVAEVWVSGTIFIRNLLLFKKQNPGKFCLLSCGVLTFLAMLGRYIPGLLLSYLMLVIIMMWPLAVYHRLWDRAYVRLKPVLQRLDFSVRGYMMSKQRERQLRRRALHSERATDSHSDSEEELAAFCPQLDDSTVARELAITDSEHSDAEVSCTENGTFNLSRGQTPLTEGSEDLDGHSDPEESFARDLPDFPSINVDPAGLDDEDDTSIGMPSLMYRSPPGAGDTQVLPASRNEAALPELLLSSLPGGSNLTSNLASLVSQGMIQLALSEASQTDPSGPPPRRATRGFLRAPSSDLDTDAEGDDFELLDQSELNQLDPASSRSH


Tests used:
Assay in all cases: co-IP
[1] = target: T1, FAM134B-V5, wild-type full-length (FL), stably expressed in PDAC cells (mouse)
[2] = target: T2, FAM134B, endogenous in PDAC cells (mouse (endogenous in PDAC KPC cells))
[3] = target: T3, FAM134C precipitated from PDAC cells (Figs. S3B, S5D-E)
FLAG-RhoA WT = FLAG-RhoA WT (UniProt P61586)
[4] = target: FLAG-RhoA T19N (inactive, GTP-binding deficient) (UniProt P61586)

| binding [1] | binding [2] | binding [3] | binding (FLAG-RhoA WT) | binding [4] | Molecule |
| --- | --- | --- | --- | --- | --- |
| binds | binds | binds |  |  | PRKAR1A, endogenous in PDAC cells (from UniProt Q9DBC7 1-381) |
|  |  |  | binds | binds | FAM134B-V5 expressed in HEK293FT cells (receptor, UniProt Q8VE91 1-480) MASPAPEEHATQGCPATEEQPPRPGVPGEEAGPEGAGPQVEEAAGRVAAALTWLLGEPVLWLGWRADELLSWKRPLRSLLTFLGANLLFWFLALTPWRVYHLISVMILGRVIMQIIKEMVLSRTRGAQLWRSLTESWEVINSKPDERARLSQCIAESWMNFSMFLQEMSLFKQQSPGKFCLLVCSVCTFFTILGSYIPGVILSYLLLLFAFLCPLFKCNDIGQKIYSKVKSILLKLDFGIGEYINQKKRERSEADKEKSHKDDSELDFSALCPKISLTVAAKELSVSDTDVSEVSWTDNGTFNLSEGYTPQTDTSDDLDRPSEEVFSRDLSDFPSLENGTGTNDEDELSLGLPTELKRKKQQLDSAHRPSKERQSAAGLSLPLKSDQALHLMSNLAGDVITAAMTAAIKDQLEGARQALTQVAPTAGEDTDTEEGDDFELLDQAELDQIESELGLTQDQGAEAQQSKKSSGFLSNLLGGH |

Second part, the molecule before the results:

| Molecule | binding [1] | binding [2] | binding [3] | binding (FLAG-RhoA WT) | binding [4] |
| --- | --- | --- | --- | --- | --- |
| GFP-PRKAR1A NT (N-terminal 93 amino acids) (from UniProt P10644 1-93) (domain or fragment) | binds |  |  |  |  |
| FAM134C-V5 expressed in HEK293FT cells (receptor, UniProt Q9CQV4 1-466) MEEAEGVAAAPGPASGLAFRGRRAMSGSWERDQQVEAAQRTLVEVLGPYEPLLSRVQAALVWERPARSALWCLGLNAAFWFFALTSLRFVFLLAFSLMIIVCIDQWKNKIWPEINVPRPDALDNESWGFVHPRLLSVPELCHHVAEVWVSGTIFIRNLLLFKKQNPGKFCLLSCGVLTFLAMLGRYIPGLLLSYLMLVIIMMWPLAVYHRLWDRAYVRLKPVLQRLDFSVRGYMMSKQRERQLRRRALHSERATDSHSDSEEELAAFCPQLDDSTVARELAITDSEHSDAEVSCTENGTFNLSRGQTPLTEGSEDLDGHSDPEESFARDLPDFPSINVDPAGLDDEDDTSIGMPSLMYRSPPGAGDTQVLPASRNEAALPELLLSSLPGGSNLTSNLASLVSQGMIQLALSEASQTDPSGPPPRRATRGFLRAPSSDLDTDAEGDDFELLDQSELNQLDPASSRSH |  |  |  | binds | binds |
